In the supplement of paper PMC10849652:
The list shows a part of the results. Residues, ends and D or L forms follow the SMILES beside them. *: point of attachment. Cbz = O=C(OCc1ccccc1)*

Sequences of proteins named here, by UniProt entry; tags and fusion partners are left off. A change or cut given only in a name is not applied to a line headed by its entry.
UniProt O94826, whole entry, looked up: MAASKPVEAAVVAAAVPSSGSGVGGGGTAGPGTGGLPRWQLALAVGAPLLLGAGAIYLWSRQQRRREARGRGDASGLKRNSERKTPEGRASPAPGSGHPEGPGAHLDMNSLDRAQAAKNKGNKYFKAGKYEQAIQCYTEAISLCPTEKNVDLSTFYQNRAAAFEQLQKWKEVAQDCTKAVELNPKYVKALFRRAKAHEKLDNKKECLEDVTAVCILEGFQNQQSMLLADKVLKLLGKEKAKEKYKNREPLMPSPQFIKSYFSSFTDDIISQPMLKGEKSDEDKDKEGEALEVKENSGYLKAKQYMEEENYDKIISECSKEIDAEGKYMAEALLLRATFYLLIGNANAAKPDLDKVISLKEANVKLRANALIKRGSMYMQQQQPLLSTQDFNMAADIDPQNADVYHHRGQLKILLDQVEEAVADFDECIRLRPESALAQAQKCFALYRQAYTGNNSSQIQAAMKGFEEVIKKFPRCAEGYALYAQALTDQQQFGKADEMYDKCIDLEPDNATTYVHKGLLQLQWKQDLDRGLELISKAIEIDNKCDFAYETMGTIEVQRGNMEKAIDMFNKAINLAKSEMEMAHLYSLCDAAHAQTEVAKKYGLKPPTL
UniProt Q96S44: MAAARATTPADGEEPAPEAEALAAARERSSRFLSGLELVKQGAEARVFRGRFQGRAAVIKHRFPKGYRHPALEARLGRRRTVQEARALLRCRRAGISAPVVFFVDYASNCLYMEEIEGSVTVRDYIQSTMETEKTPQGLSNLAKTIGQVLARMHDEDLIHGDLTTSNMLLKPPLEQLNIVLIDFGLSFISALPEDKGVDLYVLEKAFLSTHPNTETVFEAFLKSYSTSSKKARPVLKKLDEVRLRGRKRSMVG
UniProt Q16890: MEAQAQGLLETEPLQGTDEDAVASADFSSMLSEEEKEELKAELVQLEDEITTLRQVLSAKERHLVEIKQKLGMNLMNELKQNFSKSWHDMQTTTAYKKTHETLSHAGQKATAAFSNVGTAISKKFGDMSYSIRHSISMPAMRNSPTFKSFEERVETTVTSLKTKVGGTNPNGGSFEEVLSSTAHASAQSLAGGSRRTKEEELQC
UniProt P62995: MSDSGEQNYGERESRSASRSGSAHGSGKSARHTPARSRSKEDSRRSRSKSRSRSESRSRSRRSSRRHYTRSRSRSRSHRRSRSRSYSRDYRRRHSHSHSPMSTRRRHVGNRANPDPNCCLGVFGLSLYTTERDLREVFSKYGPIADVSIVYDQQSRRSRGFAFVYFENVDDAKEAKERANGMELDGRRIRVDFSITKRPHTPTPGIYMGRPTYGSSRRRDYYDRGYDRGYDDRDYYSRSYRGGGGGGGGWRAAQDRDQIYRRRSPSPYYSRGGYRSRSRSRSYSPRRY
UniProt P51580: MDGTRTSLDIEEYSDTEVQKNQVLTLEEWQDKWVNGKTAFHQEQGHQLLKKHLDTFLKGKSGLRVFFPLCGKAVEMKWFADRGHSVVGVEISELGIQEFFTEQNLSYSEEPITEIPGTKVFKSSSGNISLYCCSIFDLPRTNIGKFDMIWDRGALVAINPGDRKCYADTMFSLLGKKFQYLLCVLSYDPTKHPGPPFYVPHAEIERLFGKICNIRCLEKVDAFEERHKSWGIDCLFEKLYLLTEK
UniProt Q15785: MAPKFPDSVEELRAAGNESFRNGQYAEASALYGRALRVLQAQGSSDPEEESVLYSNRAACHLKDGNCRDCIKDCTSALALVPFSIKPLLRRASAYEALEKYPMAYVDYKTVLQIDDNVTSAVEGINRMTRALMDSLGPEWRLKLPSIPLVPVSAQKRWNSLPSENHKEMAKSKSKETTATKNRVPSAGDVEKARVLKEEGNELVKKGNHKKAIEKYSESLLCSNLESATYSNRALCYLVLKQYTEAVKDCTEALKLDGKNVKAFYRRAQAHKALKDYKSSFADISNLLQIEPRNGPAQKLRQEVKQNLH
UniProt Q5JTV8: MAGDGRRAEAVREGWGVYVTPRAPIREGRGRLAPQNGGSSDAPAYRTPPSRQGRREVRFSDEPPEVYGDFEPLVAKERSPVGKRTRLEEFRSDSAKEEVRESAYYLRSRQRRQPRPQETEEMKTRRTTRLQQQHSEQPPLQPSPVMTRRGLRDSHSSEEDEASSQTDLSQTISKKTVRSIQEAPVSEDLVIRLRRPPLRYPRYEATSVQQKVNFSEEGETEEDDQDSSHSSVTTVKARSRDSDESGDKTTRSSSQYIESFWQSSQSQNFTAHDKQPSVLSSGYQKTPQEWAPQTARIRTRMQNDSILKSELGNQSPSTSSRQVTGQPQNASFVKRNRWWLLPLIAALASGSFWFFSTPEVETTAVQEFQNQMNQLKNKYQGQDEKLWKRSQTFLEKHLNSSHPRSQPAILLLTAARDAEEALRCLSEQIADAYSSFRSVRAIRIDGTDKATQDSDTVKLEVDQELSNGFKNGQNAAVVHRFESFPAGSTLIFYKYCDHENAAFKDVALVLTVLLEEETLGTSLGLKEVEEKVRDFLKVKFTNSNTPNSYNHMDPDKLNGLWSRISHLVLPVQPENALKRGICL
UniProt Q5JU69: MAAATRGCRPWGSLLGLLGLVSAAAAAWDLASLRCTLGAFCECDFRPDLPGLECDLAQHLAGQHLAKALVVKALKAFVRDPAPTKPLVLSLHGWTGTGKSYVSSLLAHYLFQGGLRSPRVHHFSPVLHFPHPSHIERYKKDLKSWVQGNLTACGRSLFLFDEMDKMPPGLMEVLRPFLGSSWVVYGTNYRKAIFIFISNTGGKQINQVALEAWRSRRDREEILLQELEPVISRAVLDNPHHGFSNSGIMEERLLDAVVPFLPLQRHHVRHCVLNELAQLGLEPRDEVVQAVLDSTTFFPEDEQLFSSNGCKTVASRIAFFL
UniProt Q9ULW0, whole entry, looked up: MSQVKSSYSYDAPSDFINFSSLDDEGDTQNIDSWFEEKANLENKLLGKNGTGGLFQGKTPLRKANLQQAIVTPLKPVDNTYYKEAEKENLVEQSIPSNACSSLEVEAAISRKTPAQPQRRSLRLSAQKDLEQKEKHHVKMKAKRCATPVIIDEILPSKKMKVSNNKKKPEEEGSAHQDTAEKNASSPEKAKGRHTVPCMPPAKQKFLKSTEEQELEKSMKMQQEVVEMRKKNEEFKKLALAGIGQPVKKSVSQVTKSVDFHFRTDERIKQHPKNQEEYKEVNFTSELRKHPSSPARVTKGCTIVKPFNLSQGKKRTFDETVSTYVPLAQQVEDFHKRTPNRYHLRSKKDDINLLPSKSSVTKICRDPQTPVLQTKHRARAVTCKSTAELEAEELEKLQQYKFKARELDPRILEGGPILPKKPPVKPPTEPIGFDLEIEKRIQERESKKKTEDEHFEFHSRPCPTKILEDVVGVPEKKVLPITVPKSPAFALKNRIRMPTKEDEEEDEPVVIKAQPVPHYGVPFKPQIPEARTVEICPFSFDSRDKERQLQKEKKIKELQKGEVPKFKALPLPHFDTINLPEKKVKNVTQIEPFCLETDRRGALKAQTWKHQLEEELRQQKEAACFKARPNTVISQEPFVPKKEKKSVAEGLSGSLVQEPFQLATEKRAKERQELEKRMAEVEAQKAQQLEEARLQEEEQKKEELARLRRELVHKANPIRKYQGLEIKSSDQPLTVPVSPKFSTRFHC
UniProt Q15650: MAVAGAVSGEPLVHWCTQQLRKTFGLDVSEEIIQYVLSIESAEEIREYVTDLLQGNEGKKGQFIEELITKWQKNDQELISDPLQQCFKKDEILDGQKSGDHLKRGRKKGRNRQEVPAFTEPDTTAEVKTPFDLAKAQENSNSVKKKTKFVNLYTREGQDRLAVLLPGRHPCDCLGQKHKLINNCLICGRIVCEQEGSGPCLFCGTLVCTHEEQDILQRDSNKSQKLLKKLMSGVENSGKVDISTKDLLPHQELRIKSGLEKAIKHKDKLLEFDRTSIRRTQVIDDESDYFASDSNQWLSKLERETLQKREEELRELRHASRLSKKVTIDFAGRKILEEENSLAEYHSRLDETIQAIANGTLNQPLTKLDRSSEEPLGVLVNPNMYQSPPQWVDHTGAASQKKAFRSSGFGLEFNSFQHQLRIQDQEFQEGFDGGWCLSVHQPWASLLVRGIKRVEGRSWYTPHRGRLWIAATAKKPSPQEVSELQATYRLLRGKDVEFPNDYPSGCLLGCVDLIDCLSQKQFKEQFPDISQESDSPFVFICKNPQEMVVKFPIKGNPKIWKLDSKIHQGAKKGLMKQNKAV
UniProt Q14258, whole entry, looked up: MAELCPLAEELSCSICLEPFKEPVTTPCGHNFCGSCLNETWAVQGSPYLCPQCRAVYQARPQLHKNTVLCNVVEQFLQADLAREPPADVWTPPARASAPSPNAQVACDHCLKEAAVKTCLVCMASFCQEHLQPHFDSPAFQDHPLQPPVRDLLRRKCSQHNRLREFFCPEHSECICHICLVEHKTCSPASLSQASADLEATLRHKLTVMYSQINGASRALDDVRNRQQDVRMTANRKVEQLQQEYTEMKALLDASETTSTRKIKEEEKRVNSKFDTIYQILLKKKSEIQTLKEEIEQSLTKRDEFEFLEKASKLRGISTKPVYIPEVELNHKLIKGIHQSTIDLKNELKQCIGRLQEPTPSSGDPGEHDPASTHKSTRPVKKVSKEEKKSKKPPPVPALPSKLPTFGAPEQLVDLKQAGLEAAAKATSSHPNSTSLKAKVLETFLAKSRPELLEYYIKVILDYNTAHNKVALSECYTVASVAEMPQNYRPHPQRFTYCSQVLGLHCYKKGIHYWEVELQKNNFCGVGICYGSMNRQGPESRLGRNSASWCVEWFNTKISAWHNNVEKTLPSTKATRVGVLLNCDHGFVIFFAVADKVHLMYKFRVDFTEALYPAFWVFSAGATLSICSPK
UniProt Q9NXH8: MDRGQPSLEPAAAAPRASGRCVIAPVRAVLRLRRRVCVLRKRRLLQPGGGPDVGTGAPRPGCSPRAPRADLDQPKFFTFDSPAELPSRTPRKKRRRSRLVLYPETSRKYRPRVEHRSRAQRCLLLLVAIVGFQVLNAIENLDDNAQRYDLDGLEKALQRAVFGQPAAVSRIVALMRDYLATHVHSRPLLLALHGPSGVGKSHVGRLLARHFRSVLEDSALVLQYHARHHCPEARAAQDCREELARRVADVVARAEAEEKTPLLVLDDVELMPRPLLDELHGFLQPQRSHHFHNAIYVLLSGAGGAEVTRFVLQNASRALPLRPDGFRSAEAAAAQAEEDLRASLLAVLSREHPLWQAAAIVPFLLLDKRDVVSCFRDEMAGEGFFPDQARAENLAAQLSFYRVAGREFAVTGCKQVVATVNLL

How the values were obtained:
Test in all cases: log2 fold change, soluble protein after heating vs DMSO (PISA); higher = thermal stabilisation; K562 cells, 10 uM, 30 min; active = over 0.2 and 3.5 SD of the protein, either way, in both replicates (recomputed)
[1] = compound: C#Cc1cccc(Nc2ncnc3cc(OCCOC)c(OCCOC)cc23)c1 [erlotinib]
How it was run: (§1)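 Aliquots of K562 cells (2×10^6 cells/mL) treated with 10 μM compound for 30 min were heated for 3 min over 48°C-58°C. After pooling and extraction in PBS with 0.5% NP-40 at 4°C, soluble protein from a 21,000xg, 90 min spin was quantified by TMTpro 16plex LC-MS/MS with channel sums equalised. Thermal stability is expressed against control samples, from duplicates, as a log2 fold change.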

[2] = compound: C/C(=N\NC(=O)C1=CC(=CC=C1)S(=O)(=O)N2CCOCC2)/C3=C(C=CC(=C3)Cl)O
How it was run: as §1

[3] = compound: C1=CC(=C(C=C1Cl)C2=NC3=NC=CN=C3C(=N2)NC4=CC=NC=C4)F
How it was run: as §1

[4] = compound: C1=CC(=CC=C1C2=NC3=C(N2)C=C(C=C3)C(=O)N)OC4=CC=C(C=C4)Cl
How it was run: as §1

[5] = compound: C1=CC2=C(C=CC(=C2)/C=C\3/C(=O)NC(=NCC4=CC=CS4)S3)N=C1
How it was run: as §1

[6] = compound: C1=CC2=NC=CN=C2C=C1/C=C/3\C(=O)NC(=O)S3
How it was run: as §1

[7] = compound: C1=CC=C(C=C1)C2=NC(=C(N2)C3=CC=NC=C3)C4=CC(=C(C=C4)Cl)O
How it was run: as §1

[8] = compound: C1=CC=C2C(=C1)C3=NNC4=CC=CC(=C43)C2=O
How it was run: as §1

[9] = compound: C1CCN(C1)C(=O)NC2=CC=CC(=C2)NC3=NC=C(C(=N3)NCCC4=CN=CN4)Br
How it was run: as §1

[10] = compound: C1CN(CCC1(CC2=CC=C(C=C2)Cl)N)C3=NC=NC4=C3C=CN4
How it was run: as §1

[11] = compound: C1COCCN1CCN2C3=CC=CC=C3N=C2NC(=O)C4=CC(=CC=C4)[N+](=O)[O-] [IRAK-1-4 Inhibitor I]
How it was run: as §1

[12] = compound: C=CC(=O)N1CCC[C@@H](n2nc(-c3ccc(Oc4ccccc4)cc3)c3c(N)ncnc32)C1 [ibrutinib]
How it was run: as §1

[13] = compound: CC(=O)c1cnc2ccc(-c3cc(Cl)c(O)c(Cl)c3)nc2c1N[C@H]1CC[C@H](CN(C)C)CC1
How it was run: as §1

[14] = compound: CC(C)(C)Cn1c(N)nc2ccc(-c3[nH]c(C(C)(C)C)nc3-c3ccc(F)cc3)nc21 [ralimetinib]
How it was run: as §1

[15] = compound: CC(C)(O)CC(=O)NCCn1ccc2ncnc(Nc3ccc(Oc4cccc(C(F)(F)F)c4)c(Cl)c3)c21
How it was run: as §1

[16] = compound: CC(C)C1=C2N=C(C=C(N2N=C1)NCC3=CC=CC=C3)NCCCCCCN
How it was run: as §1

[17] = compound: CC(C)C[C@@H](C=O)NC(=O)[C@H](CC(C)C)NC(=O)[C@H](CC(C)C)NC(=O)OCc1ccccc1
How it was run: as §1

[18] = compound: CC(C)N(C[C@H]1O[C@@H](n2cnc3c(N)ncnc32)[C@H](O)[C@@H]1O)[C@H]1C[C@@H](CCc2nc3cc(C(C)(C)C)ccc3[nH]2)C1 [pinometostat]
How it was run: as §1

[19] = compound: CC1=C(C(CC(=O)N1)C2=CC=C(C=C2)C(F)(F)F)C(=O)NC3=C(C=C4C(=C3)C=NN4)F
How it was run: as §1

[20] = compound: CC1=C(C2=C(C=C1)C(=O)C3=CC=CC=C3N2CCCN)C
How it was run: as §1

Measured: log2 fold change

TOMM70 (UniProt O94826)
inactive: [1] 0 | [2] 0.031 | [3] 0.043 | [4] -0.016 | [5] 0.026 | [6] 0.002 | [7] 0.014 | [8] 0.039 | [9] 0.012 | [10] 0.016 | [11] -0.001 | [12] -0.043 | [13] -0.037 | [14] -0.005 | [15] -0.008 | [16] -0.005 | [17] 0.001 | [18] -0.04 | [19] -0.03 | [20] 0.009

TNKS1BP1 (UniProt Q9C0C2)
inactive: [1] 0.005 | [2] -0.03 | [3] -0.03 | [4] 0.05 | [5] -0.001 | [6] 0.021 | [7] -0.039 | [8] -0.053 | [9] 0.002 | [10] 0.066 | [11] 0.023 | [12] 0.044 | [13] -0.018 | [14] 0.007 | [15] 0.048 | [16] 0.108 | [17] 0.027 | [18] -0.022 | [19] 0.034 | [20] 0.053

TP53RK (UniProt Q96S44)
inactive: [1] 0.021 | [2] 0.001 | [3] 0.01 | [4] 0.018 | [5] -0.015 | [6] 0.03 | [7] 0 | [8] 0.024 | [9] -0.014 | [10] -0.023 | [11] 0.027 | [12] 0.025 | [13] -0.008 | [14] -0.053 | [15] 0.002 | [16] 0.062 | [17] -0.047 | [18] -0.025 | [19] 0.001 | [20] 0.049

Taken from the entries so far (two entries):
TNKS1BP1 (UniProt Q9C0C2)
inactive: [1] 0.005 | [2] -0.03 | [3] -0.03 | [4] 0.05 | [5] -0.001 | [6] 0.021 | [7] -0.039 | [8] -0.053 | [9] 0.002 | [10] 0.066 | [11] 0.023 | [12] 0.044 | [13] -0.018 | [14] 0.007 | [15] 0.048 | [16] 0.108 | [17] 0.027 | [18] -0.022 | [19] 0.034 | [20] 0.053

TP53RK (UniProt Q96S44)
inactive: [1] 0.021 | [2] 0.001 | [3] 0.01 | [4] 0.018 | [5] -0.015 | [6] 0.03 | [7] 0 | [8] 0.024 | [9] -0.014 | [10] -0.023 | [11] 0.027 | [12] 0.025 | [13] -0.008 | [14] -0.053 | [15] 0.002 | [16] 0.062 | [17] -0.047 | [18] -0.025 | [19] 0.001 | [20] 0.049

Following part:

TPD52L1 (UniProt Q16890)
inactive: [1] 0.009 | [2] 0.033 | [3] 0.034 | [4] 0.033 | [5] 0.059 | [6] 0.019 | [7] 0.002 | [8] 0.001 | [9] -0.071 | [10] 0.001 | [11] 0.034 | [12] 0.04 | [13] 0 | [14] 0.048 | [15] 0.007 | [16] 0.056 | [17] -0.053 | [18] 0.025 | [19] 0.003 | [20] 0.102

TRA2B (UniProt P62995)
inactive: [1] -0.198 | [2] -0.078 | [3] -0.376 | [4] 0.148 | [5] -0.193 | [6] -0.036 | [7] -0.267 | [8] -0.108 | [9] 0.085 | [10] -0.255 | [11] -0.213 | [12] 0.153 | [13] -0.217 | [14] 0.237 | [15] 0.241 | [16] 0.017 | [17] 0.201 | [18] 0.177 | [19] 0.21 | [20] -0.282

TPMT (UniProt P51580)
inactive: [1] -0.019 | [2] 0.041 | [3] 0.055 | [4] -0.011 | [5] 0.012 | [6] 0.038 | [7] -0.015 | [8] -0.011 | [9] -0.005 | [10] -0.008 | [11] 0.023 | [12] -0.034 | [13] -0.014 | [14] -0.044 | [15] 0.025 | [16] 0.017 | [17] -0.014 | [18] -0.032 | [19] -0.024 | [20] 0.005

TOMM34 (UniProt Q15785)
inactive: [1] 0.156 | [2] 0.086 | [3] -0.045 | [4] -0.009 | [5] 0.068 | [6] 0 | [7] -0.026 | [8] 0.005 | [9] -0.042 | [10] -0.034 | [11] -0.057 | [12] -0.077 | [13] -0.001 | [14] 0.061 | [15] -0.098 | [16] -0.168 | [17] 0.088 | [18] 0.063 | [19] 0.033 | [20] 0.079

TOR1AIP1 isoform 3 (UniProt Q5JTV8)
inactive: [1] -0.02 | [2] 0.024 | [3] 0.038 | [4] 0.001 | [5] -0.022 | [6] 0.034 | [7] 0.027 | [8] -0.065 | [9] -0.015 | [10] 0.038 | [11] 0.017 | [12] 0.02 | [13] 0.003 | [14] 0.005 | [15] 0.015 | [16] 0.049 | [17] -0.022 | [18] -0.022 | [19] 0.008 | [20] -0.004

TPP2 (UniProt Q5VZU9)
inactive: [1] -0.143 | [2] 0.014 | [3] -0.096 | [4] -0.248 | [5] 0.209 | [6] -0.256 | [7] 0.093 | [8] -0.079 | [9] -0.353 | [10] 0.076 | [11] 0.009 | [12] 0.023 | [13] -0.111 | [14] 0.155 | [15] 0.038 | [16] 0.16 | [17] 0.077 | [18] 0.158 | [19] 0.118 | [20] 0.338

TOR2A (UniProt Q5JU69)
inactive: [1] 0.046 | [2] -0.138 | [3] 0.017 | [4] -0.03 | [5] -0.045 | [6] 0.141 | [7] 0.064 | [8] -0.066 | [9] -0.063 | [10] 0.083 | [11] 0.082 | [12] 0.051 | [13] 0.089 | [14] -0.006 | [15] 0.047 | [16] 0.014 | [17] 0.033 | [18] -0.026 | [19] 0.08 | [20] 0.112

TRIO (UniProt O75962)
inactive: [1] 0.329 | [2] 0.007 | [3] 0.098 | [4] -0.013 | [5] 0.04 | [6] 0.073 | [7] -0.247 | [8] -0.054 | [9] 0.03 | [10] 0.071 | [11] -0.158 | [12] -0.035 | [13] 0.092 | [14] -0.205 | [15] -0.149 | [16] -0.16 | [17] 0.158 | [18] -0.037 | [19] -0.041 | [20] 0.027

TPX2 (UniProt Q9ULW0)
inactive: [1] -0.023 | [2] -0.022 | [3] -0.11 | [4] 0.029 | [5] -0.012 | [6] 0.079 | [7] -0.012 | [8] -0.088 | [9] -0.104 | [10] 0.036 | [11] -0.01 | [12] 0.016 | [13] -0.032 | [14] 0.029 | [15] 0.031 | [16] 0.039 | [17] 0.103 | [18] 0.036 | [19] 0 | [20] 0.162

TRIP4 (UniProt Q15650)
inactive: [1] 0.057 | [2] 0.076 | [3] -0.044 | [4] -0.01 | [5] -0.023 | [6] 0.036 | [7] -0.025 | [8] 0.057 | [9] 0.012 | [10] -0.045 | [11] -0.088 | [12] -0.028 | [13] 0 | [14] 0.076 | [15] 0.004 | [16] -0.051 | [17] 0.062 | [18] 0.078 | [19] -0.026 | [20] 0.025

TRIM25 (UniProt Q14258)
inactive: [1] 0.031 | [2] -0.019 | [3] -0.319 | [4] -0.018 | [5] -0.052 | [6] -0.001 | [7] -0.052 | [8] 0.01 | [9] -0.09 | [10] -0.181 | [11] -0.134 | [12] -0.034 | [13] 0.024 | [14] 0.196 | [15] 0.027 | [16] -0.007 | [17] 0.191 | [18] 0.248 | [19] 0.033 | [20] 0.108

TOLLIP (UniProt Q9H0E2)
inactive: [1] 0.022 | [2] 0.101 | [3] 0.115 | [4] -0.054 | [5] 0.088 | [6] -0.014 | [7] 0.005 | [8] 0.011 | [9] -0.019 | [10] -0.044 | [11] 0.011 | [12] 0.006 | [13] -0.039 | [14] 0.045 | [15] -0.064 | [16] -0.084 | [17] 0.033 | [18] -0.07 | [19] -0.029 | [20] 0.075

TOR4A (UniProt Q9NXH8)
inactive: [1] -0.031 | [2] 0.016 | [3] -0.109 | [4] -0.005 | [5] -0.023 | [6] -0.038 | [7] 0.093 | [8] 0.043 | [9] -0.021 | [10] 0.017 | [11] -0.02 | [12] -0.014 | [13] 0.073 | [14] 0.176 | [15] 0.018 | [16] -0.114 | [17] 0.041 | [18] 0.079 | [19] -0.044 | [20] 0.021
